{"sequences": {"note": "The chains behind the UniProt entries cited, without tags or fusion partners.", "UniProt P34972, whole entry": "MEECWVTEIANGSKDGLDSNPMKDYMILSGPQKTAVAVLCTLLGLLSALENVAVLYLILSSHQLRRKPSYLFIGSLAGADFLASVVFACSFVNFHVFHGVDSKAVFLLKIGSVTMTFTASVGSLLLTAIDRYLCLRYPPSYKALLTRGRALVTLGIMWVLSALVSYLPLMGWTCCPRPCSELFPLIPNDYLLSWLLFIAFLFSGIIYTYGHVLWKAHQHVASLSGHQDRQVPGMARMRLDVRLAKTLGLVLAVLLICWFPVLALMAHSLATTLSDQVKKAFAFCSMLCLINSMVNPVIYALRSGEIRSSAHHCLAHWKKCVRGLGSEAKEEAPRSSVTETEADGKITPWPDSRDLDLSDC"}, "source": "patent US20190160058A1", "about": "“METHODS OF TREATMENT WITH SELECTIVE CB2 RECEPTOR AGONISTS” (Arena Pharmaceuticals, Inc., priority 2016, published 2019)", "note": "Some entries share one result that the patent states for a list of compounds.", "data": [{"biological_target": "CB2 receptor (Homo sapiens, UniProt P34972)", "test": "internalization of the CB2 receptor in a cell", "format": "cell-based", "conditions": "stated as an embodiment", "source_text": "In some embodiments, the selective CB2 receptor agonist increases internalization of the CB2 receptor in a cell to at least 75%, at least 80%, at least 85%, at least 90%, at least 95%, at least 96%, at least 97%, at least 98%, or at least about 99% the level of internalization that would occur if the cell were contacted with CP55,940. In some embodiments, the CB2 receptor agonist that increases internalization of the CB2 receptor to at least 90% of CP55,940 is selected from: Compound B, Compound E, Compound G, and Compound H. CP55,940 has the following chemical structure:\nIn certain instances, the CB2 receptor agonist compounds identified using the HTRF® assay, the PathHunter-arrestin assay, and the radioligand binding assay can be tested for CB2 receptor internalization to select those agonists that induce robust internalization of the receptor in order to maintain a sufficient level of signaling for sustained in vivo efficacy. In certain embodiments, such agonists are preferred in the methods described herein.\nReceptor internalization can be measured using a number of methods, including but not limited to measuring a loss of labeled receptor from the cell surface (e.g., using flow cytometry) measuring the appearance of receptors internalized in the cell (e.g., in characteristic punctate intracellular vesicles), and/or measuring the return of receptors recycled to the cell surface. For example, the number, density, and/or staining intensity of granules in the cell can be quantified. Receptor internalization can be measured using any appropriate method known to those of skill in the art. […]", "values": [{"compound": "O=C(N[C@H](CO)C1CCOCC1)c1nn(-c2c[n+]([O-])ccn2)c2c1C[C@H]1C[C@@H]21", "note": "[Compound G, (1aR,5aR)-2-(4-Oxy-pyrazin-2-yl)-1a,2,5,5a-tetrahydro-1H-2,3-diaza-cyclopropa[a]pentalene-4-carboxylic acid [(S)-2-hydroxy-1-(tetrahydro-pyran-4-yl)-ethyl]-amide]", "internalization of the CB2 receptor as % of CP55,940": "at least 90%"}, {"compound": "O=C(NC1(C(F)(F)F)CCC1)c1nn(-c2c[n+]([O-])ccn2)c2c1C[C@@H]1C[C@H]21", "note": "[Compound E, (1aS,5aS)-2-(4-Oxy-pyrazin-2-yl)-1a,2,5,5a-tetrahydro-1H-2,3-diaza-cyclopropa[a]pentalene-4-carboxylic acid (1-trifluoromethyl-cyclobutyl)-amide]", "internalization of the CB2 receptor as % of CP55,940": "at least 90%"}, {"compound": "CC(C)(NC(=O)c1nn(-c2c[n+]([O-])ccn2)c2c1C[C@@H]1C[C@H]21)C(F)(F)F", "note": "[Compound H, (1aS,5aS)-2-(4-Oxy-pyrazin-2-yl)-1a,2,5,5a-tetrahydro-1H-2,3-diaza-cyclopropa[a]pentalene-4-carboxylic acid (2,2,2-trifluoro-1,1-dimethyl-ethyl)-amide]", "internalization of the CB2 receptor as % of CP55,940": "at least 90%"}]}]}
